Source: patent publication US9987371B2 (priority 2013, dated 2018)
Values joined by “and” are separate entries in the source; they are usually repeats but may differ in a detail not shown here. Identical values can stand only once. “Also recorded” adds a separate entry of the source. Like-named read-outs stand apart in the source and are kept apart here. At least one peptide structure holds a part that was inferred or is arguable (an end, a ring closure or a residue).

How the values were obtained:
B16F10 cells = assay: Confocal microscopy of cytoplasmic oligonucleotide release in B16 cells; type: cell-based
GFP in B16 GFP cells [1] = type: cell-based; conditions: for Able to transfect?: GFP knockdown at 50 nM
[2] = read-out: IC50 of siRNA transfection; previously reported, Hou et al., 2013; cited from earlier work
HUVECs = assay: HUVEC transwell migration assay (bFGF); type: cell-based, human; conditions: STAT3 siRNA delivered by p5RHH, response to bFGF; Alamar Blue and fluorescence microscopy
STAT3 in HUVECs = type: cell-based, human
JNK2 in RAW264.7 cells = type: cell-based, mouse
RAW264.7 cells = assay: Foam cell formation assay / Oil Red O staining; type: cell-based, mouse; conditions: JNK2 siRNA 50 nM, 50 μg/mL Ac-LDL
GFP in B16 GFP cells [3] = type: cell-based
F8 cells = assay: F8 cell viability (Alamar Blue); type: cell-based, murine; conditions: p65 and p100/p52 siRNAs in one p5RHH/siRNA formulation

## CC[C@H](C)[C@H](NC(=O)[C@H](CC(C)C)NC(=O)[C@H](C)NC(=O)[C@@H]1CCCN1C(=O)[C@H](CC(C)C)NC(=O)CNC(=O)[C@@H](NC(=O)[C@@H](NC(=O)[C@H](CC(C)C)NC(=O)[C@@H](N)C(C)C)[C@@H](C)O)[C@@H](C)O)C(=O)N[C@@H](CO)C(=O)N[C@@H](Cc1c[nH]c2ccccc12)C(=O)N[C@H](C(=O)N[C@@H](CCCNC(=N)N)C(=O)N[C@@H](CCCNC(=N)N)C(=O)N[C@@H](CCCNC(=N)N)C(=O)N[C@@H](Cc1c[nH]cn1)C(=O)N[C@@H](CCCNC(=N)N)C(=O)N[C@@H](CCCNC(=N)N)C(=O)N[C@@H](Cc1c[nH]cn1)C(=O)N[C@@H](CS)C(=O)O)[C@@H](C)CC [p5RHH]
B16F10 cells
  oligonucleotide release into the cytoplasm: able to deliver oligonucleotides to the cytoplasm; also recorded: efficient oligo release into the cytoplasm
GFP in B16 GFP cells [1]; 5 nM siRNA
  cells with decreased GFP expression: ~15%
GFP in B16 GFP cells [1]; 10 nM siRNA
  cells with decreased GFP expression: ~70%
GFP in B16 GFP cells [1]; 10 mM, 50 nM, 200 nM
  GFP knockdown compared with Lipofectamine 2000: slightly less effective
GFP in B16 GFP cells [1]; charge ratio (+/−) 6:1 (peptide/siRNA 62:1, 28:1 or 50:1 by peptide)
  Able to transfect?: Yes
GFP in B16 GFP cells [1]; charge ratio (+/−) 12:1 (peptide/siRNA 124:1, 56:1 or 100:1 by peptide)
  Able to transfect?: Yes
GFP in B16 GFP cells [1]; charge ratio (+/−) 24:1 (peptide/siRNA 248:1, 112:1 or 200:1 by peptide)
  Able to transfect?: Yes
GFP in B16 GFP cells [1]; flow cytometry dose response
  lowest siRNA concentration with GFP knockdown: ≤ 5 nM
GFP in B16 GFP cells [1]; peptide:polynucleotide ratio between 50:1 and 200:1
  outcome of screening for GFP siRNA delivery: able to transfect
[2]
  IC50: 25 nM
HUVECs
  decrease in HUVEC migration: 50%
STAT3 in HUVECs
  knockdown in STAT3 mRNA: 60%
STAT3 in HUVECs; read-out: IC50 of decrease in STAT3 mRNA and protein levels
  IC50: ~50 nM
JNK2 in RAW264.7 cells
  siRNA concentration giving strong decrease in JNK2 protein levels: ≤ 25 nM
JNK2 in RAW264.7 cells; read-out: IC50 of JNK2 knockdown
  IC50: < 25 nM
RAW264.7 cells
  lipid droplet accumulation (foam cell formation): strong decrease in lipid droplet accumulation
GFP in B16 GFP cells [3]
  GFP knockdown by western blotting: strong decrease in GFP expression
GFP in B16 GFP cells [3]; read-out: IC50 of GFP knockdown
  IC50: 50 nM and ~50 nM
F8 cells
  combined targeting of canonical and non-canonical NFκB pathways: synergistic decrease in cell viability
